Laboratory results: PubChem BioAssay AID1224830 (NIAID, 2016)
The deposit covers about 18,000 reagents; below is a random part of them. About 2,900 of all reagents (16%) count as active. 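Calls are made per well; low scores hint the gene aids the LPS response, high scores that it dampens it.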 Entries without a mark were called inactive. Repeated entries: four replicate wells of each siRNA pool. Reagent sequences are not shown.

- Test: 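Genes whose knock-down alters the TNF-alpha reporter response to LPS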 (primary screen)
- Cell system: human THP-1 monocytic leukaemia cells, TNF dual-luciferase reporter clone, PMA-differentiated to macrophage-like cells
- Reagent: siRNA pool against human genes, 50 nM
- Duration: LPS for 4 h, given about 3 days after siRNA transfection
- Treatment: bacterial LPS (TLR4 ligand), 10 ng/ml
- Detection: 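TNF firefly reporter luminescence divided by renilla, normalised to the plate median, then turned into a robust z-score for each replicate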
- Direction: TNF reporter robust z-score: higher = stronger TNF reporter response to LPS
- Call rule: 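a well is active when its z-score exceeds 2.8 or falls below -1.5; control wells carry no call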

What is on record for TXLNB?
TNF reporter robust z-score: -0.39

For TXLNB, how do the results read?
TNF reporter robust z-score: -0.46

With TXLNB, what was measured?
TNF reporter robust z-score: -0.71

With TXLNB, what was measured?
TNF reporter robust z-score: -0.74

What did the screen give for ZNF248?
TNF reporter robust z-score: 0.28

For ZNF248, what does the deposit list?
TNF reporter robust z-score: -0.74

What did the screen give for ZNF248?
TNF reporter robust z-score: -0.81

With ZNF248, what was measured?
TNF reporter robust z-score: -0.4

Which result is listed for NRAS?
TNF reporter robust z-score: 0.95

What is on record for NRAS?
TNF reporter robust z-score: 1.07

For NRAS, what was measured?
TNF reporter robust z-score: 1.25

How did the screen score NRAS?
TNF reporter robust z-score: 1.67

With FSAF1, what was measured?
TNF reporter robust z-score: -1.94 (active)

What is on record for FSAF1?
TNF reporter robust z-score: -2.02 (active)

With FSAF1, what does the deposit list?
TNF reporter robust z-score: -1.56 (active)

What did the screen give for FSAF1?
TNF reporter robust z-score: -1.9 (active)

With ABO, what was measured?
TNF reporter robust z-score: -0.56

With ABO, what was measured?
TNF reporter robust z-score: 0.81

Which result is listed for ABO?
TNF reporter robust z-score: 1.29

Which result is listed for ABO?
TNF reporter robust z-score: -0.75

With TMEM63C, what was measured?
TNF reporter robust z-score: 1.05

What did the screen give for TMEM63C?
TNF reporter robust z-score: 1

With TMEM63C, what was measured?
TNF reporter robust z-score: 2.17

For TMEM63C, what does the deposit list?
TNF reporter robust z-score: 1.71

For SOCS2, what was measured?
TNF reporter robust z-score: -1.52 (active)

How did the screen score SOCS2?
TNF reporter robust z-score: -1.19

What did the screen give for SOCS2?
TNF reporter robust z-score: -0.77

What is on record for FAM163A?
TNF reporter robust z-score: 0.04

Which result is listed for FAM163A?
TNF reporter robust z-score: 1.05

For FAM163A, what does the deposit list?
TNF reporter robust z-score: 0.4

What is on record for FAM163A?
TNF reporter robust z-score: 2.62

How did the screen score ABCB6?
TNF reporter robust z-score: -1.15

With ABCB6, what was measured?
TNF reporter robust z-score: -0.38

What is on record for ABCB6?
TNF reporter robust z-score: -0.89

With ABCB6, what does the deposit list?
TNF reporter robust z-score: -0.27

Which result is listed for LINC03040?
TNF reporter robust z-score: -0.44

With LINC03040, what was measured?
TNF reporter robust z-score: 0.14

For LINC03040, what does the deposit list?
TNF reporter robust z-score: -0.26

With LINC03040, how do the results read?
TNF reporter robust z-score: -0.27

For KIRREL1, how do the results read?
TNF reporter robust z-score: 1.15

What did the screen give for KIRREL1?
TNF reporter robust z-score: 2.03

Which result is listed for KIRREL1?
TNF reporter robust z-score: -0.37

What is on record for KIRREL1?
TNF reporter robust z-score: 1.24

What is on record for KRTAP4-4?
TNF reporter robust z-score: -0.74

With KRTAP4-4, how do the results read?
TNF reporter robust z-score: 0.92

Which result is listed for KRTAP4-4?
TNF reporter robust z-score: 0.64

What is on record for KRTAP4-4?
TNF reporter robust z-score: -0.52

With MAFK, what was measured?
TNF reporter robust z-score: -0.21

For MAFK, what does the deposit list?
TNF reporter robust z-score: 1.18

With MAFK, what does the deposit list?
TNF reporter robust z-score: 1.1

What did the screen give for MAFK?
TNF reporter robust z-score: -0.26

How did the screen score ELAPOR2?
TNF reporter robust z-score: 0.58

For ELAPOR2, what was measured?
TNF reporter robust z-score: -0.15

With ELAPOR2, what was measured?
TNF reporter robust z-score: 0.92

For ELAPOR2, how do the results read?
TNF reporter robust z-score: 0.45

What did the screen give for EPB41L4A?
TNF reporter robust z-score: -0.07

For EPB41L4A, what was measured?
TNF reporter robust z-score: -0.25

How did the screen score EPB41L4A?
TNF reporter robust z-score: -0.56

With EPB41L4A, how do the results read?
TNF reporter robust z-score: -0.27

With ERBB3, what does the deposit list?
TNF reporter robust z-score: 2.8 (active)

Which result is listed for ERBB3?
TNF reporter robust z-score: -0.57

What is on record for ERBB3?
TNF reporter robust z-score: 0.94

With ERBB3, what was measured?
TNF reporter robust z-score: 0.53
